Measured values from the supplement of paper PMC3334620.
Whole data set: some 33,000 sequences, median “E-score (-0.5 to 0.5)” near -8e-05, cut for the highest 2% near 0.23. The list shows a part of the results.

The sequences below were run against T1, Nrg2 (UniProt P38082) (assay: PBM E-score (8-mer binding enrichment) (E-score (-0.5 to 0.5)); higher = stronger / more preferred TF binding). Details: protein concentration: 100 nM; construct: GST-full length.
T1 sequence: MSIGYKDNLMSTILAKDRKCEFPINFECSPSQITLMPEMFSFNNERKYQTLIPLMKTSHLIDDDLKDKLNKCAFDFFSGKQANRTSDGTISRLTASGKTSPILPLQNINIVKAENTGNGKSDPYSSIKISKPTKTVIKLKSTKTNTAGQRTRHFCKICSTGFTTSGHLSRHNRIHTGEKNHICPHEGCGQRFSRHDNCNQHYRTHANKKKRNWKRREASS
Outline: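 GST-tagged yeast TFs (full-length or DNA-binding domain) were made by PURExpress in vitro transcription/translation and applied at about 100-200 nM to universal all-10-mer Agilent arrays. The arrays were made double-stranded by primer extension, on fresh or once-stripped slides. Bound protein was detected with fluorescent anti-GST, and scans were normalised with masliner. Each ungapped eight-base word, pooled with its reverse complement, received an E-score (modified Wilcoxon-Mann-Whitney statistic) from the Universal PBM Analysis Suite.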

| Sequence | PBM E-score |
| --- | --- |
| GAAGGGAA | -0.0367 |
| GAATTTGA | 0.104 |
| GAGAATCC | 0.106 |
| TAAGACTA | -0.0747 |
| CGGAGAAC | -0.106 |
| CAGGGAAG | 0.0197 |
| TACGCTCA | 0.1 |
| GTGATAAA | 0.00436 |
| GCGTCCAA | -0.128 |
| CTTCAATA | 0.0194 |
| TAGCACAA | 0.00877 |
| TGGCGAAA | -0.0493 |
| GTACAGTA | 0.0873 |
| AACAGTGA | -0.0365 |
| TTACGCAA | 0.0695 |
| CAGAAAGG | 0.0423 |
| CCCCCGCA | -0.229 |
| AGTCACAG | 0.00296 |
| AACGCATA | -0.00337 |
| CTGTGTTC | 0.107 |
| ACCGACGG | -0.0684 |
| CGCAATAG | 0.124 |
| CGATGGCA | 0.0295 |
| TCCGAAGA | 0.0947 |
| CAATACCC | 0.202 |

| Sequence | PBM E-score |
| --- | --- |
| AATTGTAA | -0.226 |
| AGCCCAGC | -0.152 |
| ACAGGGAA | 0.0579 |
| GTCCACGA | -0.00569 |
| AGCTAATC | 0.104 |
| TAGCCAGA | -0.137 |
| AGAGTCTG | -0.194 |
| ACGCTCGC | 0.0306 |
| GGAGCTAC | -0.224 |
| GAGATCTA | 0.048 |
| CATATGAA | 0.174 |
| GTACTCGA | -0.0513 |
| TGTTACAA | 0.113 |
| AACTTGTA | -0.00218 |
| CCCAAGCG | 0.0241 |
| GCCCACCA | -0.15 |
| CTTTGGTA | -0.174 |
| ATTAACAC | 0.246 |
| AGGAACGG | 0.0417 |
| CATAACAG | 0.0146 |
| CTTAAAGA | -0.144 |
| TAGACGAA | -0.102 |
| AGAGTGCA | -0.0559 |
| GAGTGTCA | 0.165 |
| AAGAACCC | 0.0457 |

| Sequence | PBM E-score |
| --- | --- |
| CCCAATAC | -0.0177 |
| ACCATAAA | 0.0648 |
| ATTTACCC | 0.169 |
| GGAGTGTA | -0.262 |
| CTGGTATA | -0.1 |
| TATTGCGA | 0.215 |
| ACCGAGTA | -0.0179 |
| GGCTTATA | -0.151 |
| TCCCGCCA | -0.06 |
| CTATTTAC | -0.00332 |
| AATCACGC | 0.00595 |
| ATTGGGCG | -0.0658 |
| GAGCTGAA | 0.0293 |
| ATATATTG | -0.0404 |
| CGAGAGAC | 0.0218 |
| CAATCCGC | -0.0316 |
| AATGCAAG | 0.0402 |
| CGTCTCAC | -0.0603 |
| CGTAGGTC | -0.325 |
| TGGTAAAA | -0.0794 |
| ACTAAGAT | 0.177 |
| AACATCAA | 0.204 |
| GCGAGTGA | 0.0688 |
| ACTTCTCC | -0.0928 |
| ATAGAGGG | 0.0622 |

| Sequence | PBM E-score |
| --- | --- |
| ATACCTAT | 0.151 |
| ATGTTGCC | -0.0261 |
| GCGTTCAC | -0.181 |
| CAAGCCTG | -0.166 |
| ACTACAGT | 0.0385 |
| AAATGCGT | 0.107 |
| AGCGGCCC | -0.265 |
| TCATGTAA | -0.142 |
| CATAGACA | -0.0465 |
| ATTTGTAC | 0.0588 |
| GAGTCTGA | -0.0871 |
| CATTCCTC | 0.0295 |
| GACCCTTA | 0.321 |
| AAGATTAA | 0.0915 |
| GAAACCTA | -0.141 |
| AAGCTACA | 0.00648 |
| CATCACGC | 0.0179 |
| ATGCTTAA | -0.069 |
| AGCACTTA | -0.0801 |
| ATTAGGTC | 0.216 |
| GAATTAAA | 0.165 |
| ACCGCCGG | -0.0836 |
| GTTGTTCA | -0.00763 |
| TAGTACTA | 0.121 |
| CTACGTTA | -0.0115 |

| Sequence | PBM E-score |
| --- | --- |
| GGTCTCAA | 0.0103 |
| ATTATTAG | -0.00975 |
| CCCAACAA | 0.0468 |
| CGACACAG | -0.0558 |
| AGCATGCT | -0.064 |
| CCTAAACC | -0.0707 |
| CTAGATCC | 0.127 |
| ACGGTGAA | 0.0949 |
| GTCGTCAC | -0.0906 |
| GCCTGTGA | -0.0742 |
| CAAACTTA | 0.0571 |
| ATTTTGGG | -0.102 |
| CACATACA | -0.0126 |
| GCTCTGCA | -0.25 |
| AAGCTTAA | 0.107 |
| CACCACGG | -0.325 |
| GGTCGTCA | -0.0631 |
| AACTACCA | -0.0713 |
| CTAAACCC | -0.0134 |
| TTCTCAAA | 0.211 |
| CCAGTTTC | 0.0541 |
| CACCCAGG | -0.131 |
| TCCAAGAA | 0.0177 |
| AAGCTAAG | -0.319 |
| CCACGGAG | 0.0299 |

Exported field by field: entries from further up
GGTCTCAA
  PBM E-score: 0.0103
CCCAACAA
  PBM E-score: 0.0468
CACCACGG
  PBM E-score: -0.325
TTCTCAAA
  PBM E-score: 0.211

(listing goes on)

| Sequence | PBM E-score |
| --- | --- |
| ATCTCCGC | -0.0353 |
| GGTATGTA | -0.0642 |
| CAAGAACA | 0.007 |
| ACCCATCT | 0.0368 |
| CCACTTGC | 0.0133 |
| CTCCGAAA | -0.0954 |
| ACGAGGGA | 0.0972 |
| CGCAAAGC | 0.0242 |
| GAGATGGA | -0.0519 |
| CGTCGGAA | -0.00762 |
| AGGCTTAA | -0.1 |
| AAATGAAA | 0.182 |
| CGACTCGA | -0.112 |
| AGCCCATA | 0.0496 |
| GACTGTGA | 0.03 |
| AGCTCTTA | -0.114 |
| GGCCGCCA | 0.0869 |
| CCATCTCC | 0.00532 |
| CTAGATGC | 0.0311 |
| AGGATTCC | -0.222 |
| AGGAACCT | 0.0863 |
| ACTCGCTC | -0.0241 |
| ATAGGCAA | 0.0271 |
| ATGTTATA | -0.0743 |
| CTCAGGAA | -0.0145 |

| Sequence | PBM E-score |
| --- | --- |
| GATTAGGA | -0.0684 |
| TTAAGCAA | 0.0236 |
| CTGAGACA | 0.0347 |
| AGTTTAAG | -0.125 |
| ATCCAGTG | 0.191 |
| CCGCGTTA | 0.151 |
| ACGTCGGG | -0.115 |
| GCCGGACA | 0.0968 |
| CTCCTGGA | -0.239 |
| GCGCTCGA | 0.186 |
| TAATTCTA | 0.0612 |
| AGATAGTC | -0.0726 |
| ATTCATCC | -0.0209 |
| AAAAGGTT | -0.0724 |
| CAGTGATC | 0.0931 |
| CCATAATA | 0.201 |
| CCCTGAGG | 0.236 |
| TCTAGAGA | -0.268 |
| CGTATTAG | 0.0345 |
| ATGTCGGA | -0.0972 |
| GAATTACA | 0.0268 |
| GCGGGAAA | 0.0248 |
